2 molecules from PubChem BioAssay AID230 (DTP/NCI, 2004) can be followed below.

The subject of the assay is C3H/He mice, Gardner lymphosarcoma 6C3HED ip, survival T/C. Put plainly: NCI In Vivo Anticancer Drug Screen. Data for tumor model Lymphosarcoma Gardner 6C3HED (intraperitoneal) in C3H/He mice. The settings on record: T/C endpoint: survival time, mean or median, schedule: Q01DX010 (ip), vehicle: saline, higher T/C = longer survival. How it is done:
The antitumor activity of compounds was measured in mice bearing transplantable tumors. Survival or tumor size were measured and the results are expressed as the measurement made in the treated group (T) divided by the measurement made in the vehicle treated control group (C). The tumor model used in this assay is Lymphosarcoma Gardner 6C3HED (intraperitoneal) in C3H/He mice

Molecules are shown by their SMILES. The list shows only some results of the screen, not a fair sample: it covers a few groups of compounds. Other doses and runs of a compound may be missing. T/C is the treated group as % of the vehicle group. Some entries give survivors of the animals treated and no T/C: the source holds a T/C of zero for them, seemingly a mark for toxic or unscored doses. Some doses without a T/C left all or most animals alive at the check, yet need not have been tolerated: survival well below the control is almost never listed, so the zero probably covers shortened survival too. Counts of survivors are from the toxicity check (mostly the fifth day) where no day follows; animals may have died later. Schedule codes are those of the source, taken here to give the interval after Q, in days (D) or hours (H), and the number of doses after X. Where survival is the endpoint, this PubChem deposit counts one and a half times the control or more as active, and values a quarter to a half above the control carry no call in these data; other NCI protocols may use other cut-offs. Marks such as (2×) give the number of equal values in this list. Some T/C values are followed by the survivors on the day toxicity was checked, most often the fifth; where neither a count nor a note follows, no animal had died by that day. Some entries hold several experiments; their values stand side by side, smallest first.

For the molecule `Cc1[nH]c(=O)[nH]c(=O)c1N(CCCl)CCCl`, the T/C (dose: 0.25 mg/kg/injection) is 100 % of control; the T/C (dose: 0.5 mg/kg/injection) was 103 % of control (2×); the T/C (dose: 1.0 mg/kg/injection) was 115 and 121 % of control [5 of 6 alive]; the T/C (dose: 2.0 mg/kg/injection) is 132 and 150 % of control. Also, the survivor count (dose: 4.0 mg/kg/injection) is on record as 5 of 6.

Consider `CC[C@@H](C)[C@@H]1NC(=O)/C(=C(\C)O)C1=O.c1ccc(CNCCNCc2ccccc2)cc1`, for which the T/C (dose: 10.0 mg/kg/injection) is 103 % of control, the T/C (dose: 14.0 mg/kg/injection) was 107 % of control, the T/C (dose: 20.0 mg/kg/injection) is 103 % of control and the T/C (dose: 30.0 mg/kg/injection) is 103 % of control.
